PubChem BioAssay AID504764 | Drosophila RNAi Screening Center – 2011
The deposit covers about 22,000 reagents; below is a random part of those that have a named target and a result. Over the whole deposit, 403 (1.9%) were called active. 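Unnormalised raw counts per well; ratio z-scores behind the hit calls and whether each hit raises or lowers signal are not deposited.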 Not stated in the record: the amount of reagent.

Screen: 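Genome-wide screen for regulators of Notch-driven gene expression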 (primary screen)
System: Drosophila Kc167 cells
Reagent: long dsRNA against Drosophila genes
Timing: about 5 days (4 days dsRNA, then 24 h after transfection)
Conditions: transfection of constitutively active membrane-tethered Notch lacking the extracellular domain, read 24 h later
Detection: 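Light from a Notch-responsive E(spl)m3 luciferase reporter under active Notch, with control-promoter and no-Notch reporter wells to normalise; raw counts from paired wells a and b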
Scale: induced reporter light, run 1, well a and induced reporter light, run 1, well b: higher = more light from the Notch target reporter with active Notch; control promoter light, run 1, well a and control promoter light, run 1, well b: higher = more light from the viral control promoter (cell number, transfection, viability); uninduced reporter light, run 1, well a: higher = more light from the Notch target reporter without active Notch
Active means: 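Hit if the duplicate-averaged log2 ratio of induced to control-promoter light gives a plate-wise z beyond ±2, or induced to uninduced beyond ±1.8; weak-control or discordant-duplicate wells dropped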
Meaning of the calls: active = modifier hit (raised or lowered Notch signal); inactive = not a hit

For Alas [DRSC04044], how do the results read?
induced reporter light, run 1, well a: 2.13e5; induced reporter light, run 1, well b: 2.04e5; control promoter light, run 1, well a: 1.59e5; control promoter light, run 1, well b: 1.76e5; uninduced reporter light, run 1, well a: 17130; call: inactive

What did the screen give for st [DRSC11399]?
induced reporter light, run 1, well a: 1.30e5; induced reporter light, run 1, well b: 1.47e5; control promoter light, run 1, well a: 96420; control promoter light, run 1, well b: 1.32e5; uninduced reporter light, run 1, well a: 9660; call: inactive

For Lst [DRSC07146], how do the results read?
induced reporter light, run 1, well a: 43195; induced reporter light, run 1, well b: 27265; control promoter light, run 1, well a: 43170; control promoter light, run 1, well b: 48085; uninduced reporter light, run 1, well a: 3610; call: inactive

With fuss [DRSC17200], how do the results read?
induced reporter light, run 1, well a: 1.07e5; induced reporter light, run 1, well b: 90395; control promoter light, run 1, well a: 2.02e5; control promoter light, run 1, well b: 1.57e5; uninduced reporter light, run 1, well a: 7540; call: inactive

For fuss [DRSC21452], what was measured?
call: inactive

With CG42337 [DRSC11686], what was measured?
induced reporter light, run 1, well a: 1.02e5; induced reporter light, run 1, well b: 1.08e5; control promoter light, run 1, well a: 99675; control promoter light, run 1, well b: 74550; uninduced reporter light, run 1, well a: 8955; call: inactive

For CG42337 [DRSC11687], how do the results read?
induced reporter light, run 1, well a: 13770; induced reporter light, run 1, well b: 9705; control promoter light, run 1, well a: 9060; control promoter light, run 1, well b: 9575; uninduced reporter light, run 1, well a: 2755; call: inactive

With CG4582 [DRSC15605], what does the deposit list?
induced reporter light, run 1, well a: 2.10e5; induced reporter light, run 1, well b: 1.74e5; control promoter light, run 1, well a: 2.59e5; control promoter light, run 1, well b: 1.78e5; uninduced reporter light, run 1, well a: 14165; call: inactive

What did the screen give for CG15449 [DRSC20521]?
induced reporter light, run 1, well a: 96435; induced reporter light, run 1, well b: 92235; control promoter light, run 1, well a: 1.02e5; control promoter light, run 1, well b: 1.23e5; uninduced reporter light, run 1, well a: 11865; call: inactive

With CG11294 [DRSC17777], how do the results read?
induced reporter light, run 1, well a: 71150; induced reporter light, run 1, well b: 72745; control promoter light, run 1, well a: 1.13e5; control promoter light, run 1, well b: 1.04e5; uninduced reporter light, run 1, well a: 7965; call: inactive

How did the screen score Grl43a [DRSC06383]?
induced reporter light, run 1, well a: 1.92e5; induced reporter light, run 1, well b: 2.14e5; control promoter light, run 1, well a: 3.03e5; control promoter light, run 1, well b: 2.64e5; uninduced reporter light, run 1, well a: 19170; call: inactive

What did the screen give for CG14717 [DRSC14940]?
induced reporter light, run 1, well a: 1.14e5; induced reporter light, run 1, well b: 97085; control promoter light, run 1, well a: 86710; control promoter light, run 1, well b: 68495; uninduced reporter light, run 1, well a: 5692; call: inactive

Targets listed so far whose target name starts with F or f (2):
fuss [DRSC17200]: induced reporter light, run 1, well a = 1.07e5; induced reporter light, run 1, well b = 90395; control promoter light, run 1, well a = 2.02e5; control promoter light, run 1, well b = 1.57e5; uninduced reporter light, run 1, well a = 7540; call = inactive
fuss [DRSC21452]: call = inactive
